Values quoted from earlier work in paper PMC10112881 (Cell reports, 2023).

System: head-twitch response
Details: cited from earlier work

CCN(CC)C(=O)N[C@H]1C=C2c3cccc4[nH]cc(c34)C[C@H]2N(C)C1 [Lisuride]
activity in the HTR paradigm: inactive in the HTR paradigm
